Reference: patent publication US20050123936A1 (priority 2003, published 2005)

Target: T1, Extradenticle (Exd), homeodomain plus extended fourth helix (Drosophila) (UniProt P40427)
T1 sequence (looked up): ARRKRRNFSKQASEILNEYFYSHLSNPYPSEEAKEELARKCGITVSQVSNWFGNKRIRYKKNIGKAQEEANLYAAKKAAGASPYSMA
Assay: EMSA
Settings: purified recombinant protein, label: 5'-32P both strands

## GATCTCCCGGCGAATGATTGACCATATCGGCGCCACTGTCACCCGGA (double strand) [Optimal EMSA duplex (FIG. 2a), 47 bp]
Exd alone at 1 uM, multiple Exd molecules bind nonspecifically, compound 2 improves affinity at least ~200-fold
  binding result: binds more weakly
With 50 nM compound 3 (mutant peptide YPAA), up to 100 nM Exd, 4 C
  binding result: no binding
With 50 nM polyamide 1 (no peptide), up to 100 nM Exd, 4 C
  binding result: no binding

Negatives hold for the conditions tested. Protein sequences can lack the tags named with them. Weaker means in comparison with the reference protein, sequence or condition of that experiment.
